Here are results for 107 sequences from PubChem BioAssay AID1347426 (Functional Genomics Laboratory (NCATS/FGL), 2020).

Out of some 31,000 sequences screened, about 1,400 (4.5%) were called active.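 Rule for the calls: active = median seed-adjusted z-score above 1 or below -1; inactive = the rest.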 The list shows a part of the results.

A short description of this assay: Novel Modifiers of Survival Motor Neuron (SMN) Protein: Gene Identification via Genome-wide siRNA Screen.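 Note: luminescence tracks full-length SMN protein made from the SMN2 reporter.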 The settings on record: HEK293T SMN2-luciferase reporter, siRNA knockdown, 72 h; actives lie on both sides. An outline of the steps: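 Steps: spot 1 pmol siRNA, add Lipofectamine RNAiMax in serum-free DMEM, seed HEK293T SMN2–luciferase reporter cells; incubate 72 h at 37 °C; add ONE-Glo; normalize luminescence to control siRNA, log10, MAD. Candidates: |MAD| > 1.0.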
Background: In a reporter assay the amount or activity of a reporter protein is the signal.
Consider AGAUAUUCCGGAAGCAGGATT against PNMA2, for which the median seed-adjusted z-score is inactive: 0.629. With GGAAAUCGUUCAGUAAGAATT against ZNF175, the median seed-adjusted z-score is inactive: -0.0194. Take GAUCUUUGAAGAUCAGCUATT against IFIT1L: the median seed-adjusted z-score was inactive: 0.166. As for CCAGCAUUCCUACUCCUCATT against TFDP3, the figure is inactive: -0.135; as for AGACCUUCCGCGACACGUATT against CHST1, inactive: 0.181; as for GGGUGAUCUUGAUACUGCATT against TOP2B, inactive: 0.225. The same measure for GAUACUUUGCCGUCAAUUATT against CA5B: inactive: 0.317. GCUGUAUCAAUGACCCUUATT against CLCN6: the median seed-adjusted z-score is inactive: -0.136. The same measure for GCGACUAAGGAAAAACUCATT against PDCD4: inactive: -0.0842; for CGAAGGAAAUGUACAGCAATT against SLC25A42: active: -1.02. Turning to CAUUCAAAGAAGAAUUGGATT against HNRPA1P4, the median seed-adjusted z-score was inactive: -0.906. With GCAUGCAUCUUAUUGUACATT against ZFP2, the median seed-adjusted z-score was inactive: 0. GCCUAUUUAGUGCUAAUGATT against ZRANB2: the median seed-adjusted z-score was inactive: 0.441. In the case of CUGUUGGACCGGUACACUUTT against ZNF692, the median seed-adjusted z-score was inactive: 0.556.

In the case of CAACGGCUCUUAGACCACATT against SPRY4, the median seed-adjusted z-score is active: -1.23. Turning to GUCUUAGAACCUCAACUGATT against NQO1, the median seed-adjusted z-score is inactive: 0. For GAGUCUCAGCAGUCCAAUUTT against AFF4, the median seed-adjusted z-score was inactive: -0.0637. Consider CAACAACUAUGACCCAGGATT against CHRNE, for which the median seed-adjusted z-score was inactive: 0.349. For the sequence UCCGCACGCUGAGCACUUUTT against RBP1, the median seed-adjusted z-score was inactive: 0.321. As for GUCGUGAUUUGGAGUAUUATT against AP1M2, the median seed-adjusted z-score was inactive: 0.0641.

As for GCUUAUGGAUGGAGACCAATT against RNF34, the median seed-adjusted z-score is inactive: -0.0857. GACUUAAGCGAAUAGCUAATT against UTP11L: the median seed-adjusted z-score is inactive: -0.755.

As for GCGAGAACGAUGCCGAGUUTT against TRIM15, the median seed-adjusted z-score is inactive: 0.292. The same measure for GGUGGUUGCUGUAUAUGGATT against KCTD9: active: 1.31; for UGCCCUUUAAGAUAGCUUATT against F2RL2: inactive: -0.216; for CCGAAUUGAUGGGAUAUGATT against HIF1A: inactive: 0.228. CGACUUCAUCAGAUCCAGATT against SPIRE1: the median seed-adjusted z-score was inactive: 0.336. As for CGGGUAUUGUGGGACUGAATT against USP39, the median seed-adjusted z-score was inactive: 0.821.

Consider CGGCUGCUAUUUGAACUAUTT against SLC15A4, for which the median seed-adjusted z-score was inactive: -0.29. As for GUAAGAAACAUCAUCCACATT against USP41, the figure is inactive: 0.808. In the case of GGAGCGAUAUCACAGCUUATT against RAB5B, the median seed-adjusted z-score is inactive: 0.299. On to CUAUGUCAGUGGUCCUGAATT against RETSAT, for which the median seed-adjusted z-score was active: -1.7. As for AAGCUAUUGUGAUCUCUGATT against ZBTB3, the figure is inactive: -0.0419; as for UGACCAUACUGGACGUGAATT against RDH16, inactive: 0.421; as for CCACUGCAACUGUAAUUCUTT against PROCA1, inactive: -0.502. For the sequence GGACCGCACUUUAUGGGAATT against SETD7, the median seed-adjusted z-score was inactive: -0.0831. With GGCUCUACGUGCAAGUCAATT against ETNK2, the median seed-adjusted z-score was inactive: -0.74.

For the sequence GAACAUUGGACCAACUAAATT against FUCA1, the median seed-adjusted z-score was inactive: -0.94.

Turning to CAACCAUCCCAUGUCUGUUTT against NMNAT2, the median seed-adjusted z-score was active: -1.58. On to AGAACAGCUUUACAGCACUTT against GPSM3, for which the median seed-adjusted z-score is inactive: -0.641. Take GGAAAGCACUCACAGCUAATT against TNFRSF11A: the median seed-adjusted z-score is inactive: -0.0833. The same measure for GAGAAAACCUUCGAGCAGATT against NKX6-2: inactive: 0.101; for GUACCUUCAUUAUGACGAATT against TNFRSF11B: inactive: 0.582.

For the sequence GGUUCUAAAUUAGUUCCAUTT against ALG5, the median seed-adjusted z-score was inactive: 0.286. The same measure for GGUUCGCAGUGAUAAAGGATT against HMGCR: inactive: 0.00174. In the case of GAAUUGUACCUACUUCUGUTT against PTPLA, the median seed-adjusted z-score is inactive: 0.291. In the case of GAGAUUACAUAAACGGAGATT against PARP11, the median seed-adjusted z-score is inactive: 0.192. As to CGACCUUUCUGGAAUAACATT against SERPINI2, the median seed-adjusted z-score was inactive: -0.174. With GAAUGAGCUAAAUAGUGUUTT against TARBP1, the median seed-adjusted z-score was inactive: 0.491. With CCUACUAUGUGCUACAGCUTT against MCHR1, the median seed-adjusted z-score is inactive: -0.42. The same measure for GCAGAAAGAAGUGAACCAATT against TXNL1: inactive: -0.554. Consider CAGGUUCAGUGUGAGCAGATT against STC2, for which the median seed-adjusted z-score was inactive: -0.00039. Consider CUACAUCACCCGGAACAAATT against PES1, for which the median seed-adjusted z-score is inactive: 0.44. Consider CGGCAACUCUGAUUAUAGATT against GNPNAT1, for which the median seed-adjusted z-score was inactive: 0.313.

Consider CUCUAACUAUGAUCUCGUUTT against CDS1, for which the median seed-adjusted z-score is inactive: 0.0208. As for GUAUAUGUGACUACCCAUATT against RNF4, the figure is inactive: 0.787; as for AGAUGAGUGUUAUGCUUAUTT against ZNF793, inactive: 0.448. CUACUGCAUUGAUAACGAATT against TUBB2C: the median seed-adjusted z-score is inactive: 0.

AAACAAUUCCAGUCCAGUUTT against IL8RA: the median seed-adjusted z-score is inactive: 0.316. As for GCCCUGCGGUACAAUGUCATT against APOBEC2, the figure is inactive: 0.232; as for CACCUGCGAUGAAAUCUCATT against ZNF395, inactive: -0.0986; as for CCAGGGAUAUGGAGCUUCATT against OTX2, inactive: -0.00351. Turning to GAAAGGAUGUGAAAGCCUUTT against NRIP3, the median seed-adjusted z-score is inactive: -0.699. Consider GGGAAUACCUGGUCUUCAATT against AGBL4, for which the median seed-adjusted z-score was inactive: 0.487. Consider CGAUUGCCCAUCAUCCUGATT against HAO2, for which the median seed-adjusted z-score was inactive: 0.039. As for GCACCAAAGUAUACAACGATT against PRKAR2B, the figure is inactive: -0.777; as for CAGUAUACCAUCUAACAGATT against CNTN1, inactive: -0.796; as for CUGUAUGGCUUCUAUAUAATT against LBX1, inactive: -0.36. As to CAUUGAUCCACAUACCUAUTT against EPHA5, the median seed-adjusted z-score was inactive: -0.00876. For the sequence CCCGGUUGAUCAUGCAGAATT against SLC25A43, the median seed-adjusted z-score is inactive: 0. The same measure for CCACGCACAUACUAUCAAATT against HIVEP1: inactive: 0.532. On to GAUUAGCACUACAGACUAUTT against PAPOLB, for which the median seed-adjusted z-score was inactive: 0.749.

In the case of GGAUCCAAGUUCAUCGGGATT against DPEP2, the median seed-adjusted z-score is inactive: 0. Consider GCAUGUUCCUAGUAGCCCUTT against PLEKHM2, for which the median seed-adjusted z-score is inactive: 0.593. Consider GGAUCGCUCAAAAGAUAAATT against RNPS1, for which the median seed-adjusted z-score is inactive: 0.

Regarding GUCCGGAAACAAAACGUAATT against MTF1, the median seed-adjusted z-score is inactive: -0.709. As to AGAUUAAGAUGUUCUACGATT against ADI1, the median seed-adjusted z-score was inactive: 0.0593. Take GGAUAACUGGAAACUAGGATT against BIRC2: the median seed-adjusted z-score was inactive: 0.336. On to UCAGGGAUCUUAAUCAACATT against MS4A4A, for which the median seed-adjusted z-score was inactive: 0.296. With CCAGGUCACGAGUCAAGUATT against KTI12, the median seed-adjusted z-score was inactive: 0.0814. GGAAUAAAACUGACUGAUATT against OGFRL1: the median seed-adjusted z-score was inactive: 0.0339. Take GGAAAAACCUGUGCUCAUATT against LHPP: the median seed-adjusted z-score was inactive: 0.02. Consider GCACACCUGUCAAUAGCUUTT against SMPD1, for which the median seed-adjusted z-score was inactive: 0.353. As for CAUCUGAAGUGGUUAAGCATT against SLC25A26, the median seed-adjusted z-score is inactive: 0.0213. The same measure for GUAUCAGAAUGAGAGUUCUTT against ACP2: inactive: -0.00569; for CCCUAUCAGUCCAAUGGAATT against PRDM4: inactive: 0.0804. With CCAGCCCACUCAUCUCAUUTT against SNX30, the median seed-adjusted z-score is inactive: -0.157. Take CGGCUGGGUCUGUACCAAATT against TLX2: the median seed-adjusted z-score was inactive: -0.182. As for CCUUAUCCUUCAAAGCAUATT against ART3, the median seed-adjusted z-score was inactive: -0.434. GAGGUGGAAUGGGAGCACATT against TREM2: the median seed-adjusted z-score is inactive: 0.057.

On to CAAGAUUGGUCAACUCAAATT against RAB3C, for which the median seed-adjusted z-score is inactive: 0.043. On to ACAUUUCCGUGCCCAUCUUTT against GPR150, for which the median seed-adjusted z-score was inactive: -0.129. For the sequence CAGUGUACGAGGAACAAGATT against RBM17, the median seed-adjusted z-score is inactive: 0. In the case of CAUAAACUAUGAUCUCUUATT against RCAN1, the median seed-adjusted z-score was inactive: -0.000195. As for AGGAGAACAUCAAUGUGAATT against RAB3D, the median seed-adjusted z-score is inactive: 0.221.

For GAAUAACCCUGGAAAAGUUTT against ASCL3, the median seed-adjusted z-score is inactive: 0.0929. Turning to UCAUUUAGUUUGUGUAUUATT against PRRX2, the median seed-adjusted z-score was inactive: -0.141. Take GCAAUGCAGACGAUGCGUATT against TMPRSS4: the median seed-adjusted z-score is inactive: -0.54.

For GAAGUACACUCAGCAAACATT against VWA5A, the median seed-adjusted z-score is inactive: 0.

Take CUAUGUCAGCAUAAAAGAATT against ZNF493: the median seed-adjusted z-score was inactive: 0.0872.

As to GGAAUCACAAAUAAACUUATT against ETNK1, the median seed-adjusted z-score is inactive: 0.299. For the sequence GCACCGACUAGAUUUCCUUTT against CYP3A5, the median seed-adjusted z-score is inactive: 0.0516. For the sequence GGACGUGACCAUCAUGUACTT against IRF7, the median seed-adjusted z-score is inactive: -0.304.

In the case of GGAUCAAGGUUAUUAUGGUTT against ATP12A, the median seed-adjusted z-score is inactive: -0.0941. With GCAGGUCAAUCAAAGGGAATT against PICK1, the median seed-adjusted z-score is inactive: -0.136. Regarding CCAACUCUUUGCAAAGUCATT against SERPINA6, the median seed-adjusted z-score is inactive: 0.615. GGAAGGACAAAACUAUUCATT against CHM: the median seed-adjusted z-score was inactive: 0.743.
